Experimental data published in PubChem BioAssay AID1259354 (Paczesny and Yang Labs, IUPUI and University of Michigan, 2018).
Hit rate of the full screen: of about 78,000 compounds, about 1,800 (2.3%) were called active. This list was built around the results that the source calls inconclusive (neither active nor inactive); the mix of calls is not that of the screen. Cut-off read from the data, not from the text of the source: active = inhibition above about 30%; inconclusive = mostly about 10% to 28%; inactive = weaker than that.

By UniProt entry, the sequences of proteins in these tests, tags left out. Where a name states a change or a piece, a line headed by the entry shows the natural chain unless it says otherwise.
UniProt Q01638: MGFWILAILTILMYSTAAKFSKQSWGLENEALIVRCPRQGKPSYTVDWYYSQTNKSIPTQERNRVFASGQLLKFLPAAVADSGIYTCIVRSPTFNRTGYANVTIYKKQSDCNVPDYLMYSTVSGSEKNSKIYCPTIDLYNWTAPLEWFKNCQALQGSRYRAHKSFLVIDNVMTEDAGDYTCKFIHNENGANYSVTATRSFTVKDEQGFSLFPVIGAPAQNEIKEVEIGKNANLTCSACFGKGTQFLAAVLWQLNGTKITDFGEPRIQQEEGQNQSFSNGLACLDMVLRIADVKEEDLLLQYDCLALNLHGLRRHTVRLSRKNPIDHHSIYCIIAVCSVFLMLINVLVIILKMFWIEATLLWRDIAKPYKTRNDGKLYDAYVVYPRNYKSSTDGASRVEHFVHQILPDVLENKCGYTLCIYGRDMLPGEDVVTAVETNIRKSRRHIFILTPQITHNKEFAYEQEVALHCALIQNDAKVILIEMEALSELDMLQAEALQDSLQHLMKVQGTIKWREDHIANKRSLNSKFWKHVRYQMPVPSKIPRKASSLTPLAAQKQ

What follows are molecules tested against Interleukin-1 receptor-like 1 (Homo sapiens) (UniProt Q01638) (assay: blocks human ST2 binding to IL-33, primary screen, biochemical, AlphaLISA (AID 1259354)). Settings: AlphaLISA ST2-Fc/biotin-IL-33 interaction, 1 h; at 17 µM, active compounds read high.

| SMILES | inhibition |
| --- | --- |
| CC(C)C1CN(C(=O)c2ccc3cccc(F)c3n2)CCCN1CC1CC1 (stereo not given) | inconclusive: 10% |
| Cc1c(NS(=O)(=O)c2ccc3c(c2)CCN3C(=O)C2CC2)c(=O)n(-c2ccccc2)n1C | inconclusive: 14% |
| Cc1ccc(C(=O)N[C@H]2CO[C@H]3[C@@H]2OC[C@H]3OC(=O)Nc2ccccc2)cc1 | inconclusive: 20% |
| CC1(C)CC(=O)C2=C(C1)OC1=C(C(=O)CC(C)(C)C1)C2c1ccccc1C(F)(F)F | inconclusive: 10% |
| O=S(=O)(Nc1cccc(N2CCC(NCC3OCCc4ccccc43)CC2)c1)c1ccc(F)cc1 (stereo not given) | inconclusive: 29% |
| Cc1cc(=O)[nH]c(SCC(=O)Nc2nnc(C)s2)n1 | inconclusive: 10% |
| O=C(CSc1nnc2sc3ccccc3n12)NC1CCCCC1 | inconclusive: 14% |
| COc1ccc(N=Cc2c(O)c(OC)cc(Br)c2Br)cc1OC | inconclusive: 16% |
| CC(=O)Nc1cccc(NC(=O)c2cccc(C)c2)c1 | inactive |
| Cc1cc(C(=O)Nc2sc3c(c2C#N)CCC(C(C)(C)C)C3)no1 (stereo not given) | inconclusive: 13% |
| COCCCNC(=O)c1cc(Sc2nnc(C)s2)nc2ccccc12 | inconclusive: 18% |
| O=C(Nc1sc2c(c1C(=O)NC1CCS(=O)(=O)C1)CCCC2)c1cccs1 (stereo not given) | inactive |
| COc1ccc(C(=O)Nc2c3c(nn2-c2cccc(Cl)c2)CS(=O)C3)cc1OC (stereo not given) | inconclusive: 24% |
| CCc1ccc(C2Nc3ccccc3NC3=C2C(=O)CC(c2cccs2)C3)cc1 (stereo not given) | inconclusive: 21% |
| CCn1ccnc1CN(C)c1ccc(-c2ccccc2OC)nn1 | inconclusive: 12% |
| c1ccc(-n2cc(CNCc3ccccc3-n3cncn3)c(-c3ccc4c(c3)OCO4)n2)cc1 | inconclusive: 16% |
| Cc1sc(NC(=O)c2ccc(Cl)cc2)c(C(=O)NN)c1C | inconclusive: 10% |
| CC(C)Cn1cc(C(=O)NCCc2cccs2)c(=O)c(C(=O)N2CCCCCC2)c1 | inconclusive: 13% |
| CC(c1cccc(-c2ccc[nH]c2=O)c1)N1CCCC1 (stereo not given) | inconclusive: 11% |
| CCc1nnc(NC(=O)Cn2c(=O)sc3ccccc32)s1 | inconclusive: 10% |

Two records picked at random from the list so far, as already listed:

| SMILES | inhibition |
| --- | --- |
| O=C(Nc1sc2c(c1C(=O)NC1CCS(=O)(=O)C1)CCCC2)c1cccs1 (stereo not given) | inactive |
| COc1ccc(N=Cc2c(O)c(OC)cc(Br)c2Br)cc1OC | inconclusive: 16% |

Next part.

| SMILES | inhibition |
| --- | --- |
| O=C1CC(Sc2ncccn2)C(=O)N1c1ccccc1 (stereo not given) | inconclusive: 14% |
| Cc1ccc(C(=O)c2ccccc2C(=O)N2CCC(CN)C2)cc1 (stereo not given) | inconclusive: 17% |
| O=S(=O)(Nc1ccc(Br)cc1)c1ccc(Cl)s1 | inactive |
| COc1ccc(S(=O)(=O)Nc2ccc(Cl)cc2)cc1 | inconclusive: 13% |
| N#Cc1ccccc1N1C(=O)Nc2cc(Cl)c(Cl)cc2N1O | inactive |
| C/C(=C\c1ccccc1)CN1CCC(Oc2cccc(C(=O)N3CCCC3)c2)CC1 | inconclusive: 15% |
| O=C(O)C1CC=CCC1C(=O)Nc1nnc(C2CC2)s1 (stereo not given) | inconclusive: 11% |
| NC(CO)C(=O)NNCc1ccc(O)c(O)c1O (stereo not given) | inconclusive: 28% |
| CC(C)CC1(CO)CCCN(C(=O)c2cccc3cnccc23)C1 (stereo not given) | inactive |
| N#CC1=C(N)OC2=C(C(=O)CCC2)C1c1cccc(Oc2ccccc2)c1 (stereo not given) | inconclusive: 11% |
| CC1=C(C(=O)Nc2ccc(F)cc2F)C(c2ccc(N(C)C)cc2)C2=C(CCCC2=O)N1 (stereo not given) | inconclusive: 17% |
| O=C(CN(c1cccc(C(F)(F)F)c1)S(=O)(=O)c1ccccc1)Nc1ccc(Cl)cc1 | inactive |
| Cc1ccc2oc(=O)c(C=C(O)c3ccco3)nc2c1 | inconclusive: 10% |
| O=C(Nc1cccnc1)c1cccc(S(=O)(=O)N2CCOCC2)c1 | inactive |
| C=CCc1ccccc1OCC(O)CN1C(=O)NC(C)(C)C1=O (stereo not given) | inconclusive: 24% |
| CCOC(=O)C1=C(C)Nc2nc(SCc3ccccc3)nn2C1c1ccc(F)cc1 (stereo not given) | inactive |
| COc1ccc(/C=c2/sc3nc(-c4ccc(Cl)cc4)nn3c2=O)c(OC)c1 | inactive |
| CCc1[nH]c2c(CNC(=O)Cc3c(C)nc(N)nc3C)cc(C)cc2c1C | inactive |
| Cc1ccc(C(=O)Nc2ccc3nn(-c4ccccc4)nc3c2)cc1 | inactive |
| COc1cc(Br)c(CN2CCCC(O)C2)cc1OC (stereo not given) | inconclusive: 10% |

| SMILES | inhibition |
| --- | --- |
| CC(=O)N[C@H]1C[C@@H](c2nc(-c3ccc(Cl)cc3)no2)N(C)C1 | inconclusive: 29% |
| CN(C)c1nc2c(c(N(C)C)n1)CCN(C(=O)CNS(C)(=O)=O)C2 | inconclusive: 18% |
| CCN1CCN(c2ncnc3c2cnn3-c2ccc(Cl)cc2)CC1 | inconclusive: 11% |
| O=C(c1cc(C(c2ccccc2)c2ccccc2)no1)N1CCC(Oc2ccc(F)cc2)CC1 | inactive |
| O=c1cc(-c2ccc(O)cc2)oc2cc(O)c(-c3c(O)cc4oc(-c5ccc(O)cc5)cc(=O)c4c3O)c(O)c12 | inconclusive: 15% |
| C#C[C@@](O)(c1ccccc1)c1ccc(OC)cc1 | inactive |
| O=C(Cc1ccccc1)NC1CC(=O)N(c2ccc(F)cc2)C1 (stereo not given) | inconclusive: 19% |
| O=C(c1ccc2c(=O)n(CCc3ccccc3)c(=O)[nH]c2c1)N1CCC(N2CCCCC2)CC1 | inconclusive: 15% |
| C=CCO[C@@H]1CCN2C(=O)[C@@H]3C[C@@H](OCC4CC4)CN3C(=O)[C@@H]2C1 | inactive |
| CCC1CCCCN1S(=O)(=O)c1cccc2cccnc12 (stereo not given) | inconclusive: 12% |
| COc1ccc(Br)cc1CNC(=O)C1CCCN(S(C)(=O)=O)C1 (stereo not given) | inconclusive: 16% |
| CC(C)=CCc1c2c(cc3ccc(=O)oc13)CC(C(C)(C)O)O2 (stereo not given) | inactive |
| Cc1ccc(N2CC(NC(=O)c3cccs3)CC2=O)cc1C (stereo not given) | inconclusive: 14% |
| CCc1c(C)nn(CC(=O)N2CCCC3(CN(C)C(=O)O3)C2)c1C (stereo not given) | inconclusive: 21% |
| Cc1cc(C)n(CCC(=O)NC(C)c2ccc3c(c2)OCCCO3)c(=O)n1 (stereo not given) | inconclusive: 10% |
| O=C(CN1CCN(Cc2ccc(Cl)cc2)C1=O)NCC1CCCO1 (stereo not given) | inactive |
| Fc1ccc([C@@H]2CCNC[C@H]2COc2ccc3c(c2)OCO3)cc1 | inconclusive: 22% |
| O=C(COc1ccc([N+](=O)[O-])cc1)Nc1sc2c(c1C(=O)NCc1ccco1)CCCC2 | inactive |
| COC(=O)CN1CCN(Cc2ccccc2)C(C)C1=O (stereo not given) | inconclusive: 13% |
| COCCn1c(CN2CCOCC2)nc2c1c(=O)[nH]c(=O)n2C | inactive |
